The structures appear in SMILES notation. The list shows a part of the results. Shown are side measurements of this screen, not its main read-out; they come without a call. The list favours compounds with an active or inconclusive main result. Potencies come from curve fits of mixed quality, noted in brackets.

Experimental findings from PubChem BioAssay AID1487 (National Center for Advancing Translational Sciences (NCATS), 2009) are described below.

The experiment can be described thus: qHTS Assay for Modulators of Lamin A Splicing. Particulars: HeLa LMNA splicing GFP/RFP minigene ratio, 48 h. Summed up:
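S3 HeLa stable clones carrying a lamin A-EGFP splicing minigene plus DsRed2 were seeded at 600 cells/well in Opti-MEM with 2% FBS, pin-dosed and incubated 48 h at 37°C. Acumen cytometry (488 nm) gave the GFP/RFP total-intensity ratio.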
For orientation: Quantitative high-throughput screening tests each substance at several concentrations.

Setting [1] is: measured here: RFP viability control channel.
Setting [2] is: measured here: GFP splicing reporter channel.

What is called AC50 is the concentration giving half of the maximal activity seen. On to `O=C(CCSc1nc2ccccc2s1)N/N=C/c1c(O)ccc2ccccc12`, for which the AC50 under setting [1] is 10 µM [rising, partial curve].

Regarding `Cc1onc(-c2ccccc2)c1C(=O)N/N=C/c1cccc(O)c1`, the half-maximal activity concentration (AC50) under setting [1] was 10 µM [rising, single point].

Turning to `Cc1ccc(NC(=O)CSc2nccn2Cc2ccco2)cc1Cl`, under setting [1], the AC50 is 8.91 µM [falling, partial curve].

With `COc1ccc(/C=N/OCC(=O)Nc2nc3ccccc3s2)cc1OC`, the AC50 under setting [1] was 35.5 µM [rising, single point].

Turning to `CCOC(=O)Cc1cc(=O)[nH]c(/N=C(\N)Nc2ccc(C)c(C)c2)n1`, the half-maximal activity concentration (AC50) under setting [1] is 14.1 µM [falling, partial curve, poor fit].

On to `CCCSc1ncnc2sc(C)c(C)c12`, for which the AC50 under setting [1] was 35.5 µM [falling, single point].

Turning to `Cc1ccc(-n2ncc3c(N4CCC(C(N)=O)CC4)ncnc32)cc1`, the half-maximal activity concentration (AC50) by setting is: under setting [2], 7.08 µM [falling, full curve, poor fit]; under setting [1], 5.01 µM [falling, full curve].

Take `CCC1CN(C(=O)Nc2cccc3c2CCCC3)c2cc(Cl)ccc2O1` (stereo unspecified): the half-maximal activity concentration (AC50) under setting [1] is 11.2 µM [rising, single point].

`CC1(C)CC(Nc2ccc(Nc3ccccc3)cc2)CC(C)(C)N1`: the AC50 was 10 µM [falling, partial curve, poor fit] under setting [2] and 35.5 µM [falling, partial curve] under setting [1].

As for `CCn1c(N)c(C(=O)N2CCOCC2)sc1=S`, the AC50 under setting [1] is 0.0126 µM [falling, full curve, poor fit].

For `Fc1ccc(NC(=S)N2CCN(C/C=C/c3ccccc3)CC2)c(F)c1`, the concentration at half-maximal activity (AC50) is 0.794 µM [falling, full curve, poor fit] under setting [2] and 0.891 µM [falling, partial curve, poor fit] under setting [1].

Take `Cn1c(NC(=O)c2cccc(C(F)(F)F)c2)cc(=O)n(C)c1=O`: under setting [1], the AC50 is 11.2 µM [rising, partial curve].

As for `CN1CCc2nc(SCC(=O)Nc3ccc(F)cc3)c(C#N)cc2C1`, the concentration at half-maximal activity (AC50) under setting [1] was 31.6 µM [rising, single point].

In the case of `CCOC(=O)c1sc(=S)n(Cc2ccccc2)c1N`, the AC50 is 14.1 µM [rising, partial curve, poor fit] under setting [2] and 20 µM [rising, single point] under setting [1].

For `COc1c2ccoc2nc2c(OC)cccc12`, the AC50 under setting [2] is 2 µM [rising, partial curve, poor fit].

For the molecule `CCCCNC(=O)/C=C/c1ccc(S(=O)(=O)Nc2ccc(OC)cc2)cc1`, the AC50 under setting [2] was 5.01 µM [falling, full curve, poor fit].

Take `Cc1occc1C(=O)N/N=C/c1ccccn1`: under setting [2], the AC50 was 22.4 µM [falling, single point].

Take `O=C(Nc1ccc(Oc2ccc(S(=O)(=O)N3CCOCC3)cn2)cc1)c1ccco1`: the concentration at half-maximal activity (AC50) reads like this: under setting [2], 11.2 µM [rising, partial curve, poor fit]; under setting [1], 15.8 µM [rising, single point].

Turning to `CCOc1ccc(-c2cn(-c3ccc(C)cc3)c(SCC(=O)Nc3ccc(C)cc3)n2)cc1`, the AC50 is 20 µM [rising, partial curve, poor fit] under setting [2] and 11.2 µM [rising, partial curve, poor fit] under setting [1].

As to `CCN(CC)C(=O)c1sc2c(c1C)c(=O)n(-c1ccc(Cl)c(Cl)c1)c(=O)n2Cc1cc(=O)n2ccccc2n1`, the half-maximal activity concentration (AC50) under setting [1] is 0.00794 µM [rising, full curve, poor fit].

With `COc1cccc(CNC(=O)Cn2c(=O)n3nc(-c4cccc(F)c4)nc3c3ccccc32)c1`, under setting [2], the concentration at half-maximal activity (AC50) was 10 µM [falling, partial curve, poor fit].

`c1ccc(-c2nc(CSc3nnnn3-c3ccccc3)cs2)cc1`: the AC50 was 14.1 µM [rising, partial curve] under setting [2] and 35.5 µM [rising, single point] under setting [1].

Regarding `COc1cccc(NC(=O)C(Sc2nnc(Nc3ccccc3C)s2)c2ccccc2)c1` (stereo unspecified), the AC50 under setting [1] was 31.6 µM [rising, single point].

`C/C(=N\NS(=O)(=O)c1cccc([N+](=O)[O-])c1)c1cccnc1`: the AC50 under setting [1] is 6.31 µM [rising, partial curve, poor fit].

As for `CCc1ccc2[nH]c(=O)c(CN(Cc3ccccc3)Cc3nnnn3Cc3ccco3)cc2c1`, the AC50 under setting [2] is 11.2 µM [rising, partial curve, poor fit] and the half-maximal activity concentration (AC50) under setting [1] was 12.6 µM [rising, partial curve].

Turning to `Cc1ccc(S(=O)(=O)Nc2cc(C(F)(F)F)ccc2N2CCOCC2)cc1`, the concentration at half-maximal activity (AC50) was 35.5 µM [rising, single point] under setting [2] and 31.6 µM [rising, single point] under setting [1].

Consider `COc1ccccc1CNS(=O)(=O)c1ccc2c(c1)CC(=O)N2C`, for which the concentration at half-maximal activity (AC50) under setting [1] was 0.355 µM [falling, single point].

With `COc1ccc(N2C(=O)CCC(C(=O)c3ccccc3)=C2C)cc1`, under setting [1], the AC50 is 35.5 µM [rising, single point].

`O=C(COc1ccc(Cl)cc1)Nc1ccc(Cc2ccncc2)cc1`: the AC50 was 11.2 µM [rising, partial curve] under setting [2] and 20 µM [rising, single point] under setting [1].

Take `COc1ccc(C(=O)c2sc3nc(C)cc(-c4cccs4)c3c2N)cc1OC`: the AC50 by setting is: under setting [2], 25.1 µM [rising, single point]; under setting [1], 35.5 µM [rising, single point].

As to `CCOC(=O)Cc1cnc(NC(=O)c2ccccc2)s1`, the half-maximal activity concentration (AC50) under setting [2] was 11.2 µM [rising, partial curve, poor fit].

As for `O=C(CSC1=NC(=O)C(c2ccccc2)C(=O)N1)Nc1ccccc1[N+](=O)[O-]` (stereo unspecified), the AC50 reads like this: under setting [2], 0.794 µM [rising, full curve, poor fit]; under setting [1], 1.41 µM [rising, partial curve].

Regarding `CC[N+]1=CN(c2ccccc2)C(C)=CC1(C)C`, the half-maximal activity concentration (AC50) under setting [2] was 35.5 µM [rising, single point].

`O=C(Nc1ccc(Br)cc1F)C1CCN(c2nc3ccccc3[nH]2)CC1`: the AC50 under setting [2] is 11.2 µM [falling, partial curve, poor fit].

Regarding `O=C(Nc1ccccc1)Nc1ccc2snnc2c1`, the AC50 under setting [1] is 35.5 µM [rising, single point].

Consider `CC(C)(C)NS(=O)(=O)c1ccc(NC(=O)C2CCCCC2)cc1`, for which, under setting [1], the AC50 is 35.5 µM [falling, partial curve].

For `CCOc1cc2[nH]c(=O)n(CCCCC(=O)N3CCN(c4ccc(OC)cc4)CC3)c(=O)c2cc1OCC`, the half-maximal activity concentration (AC50) was 0.708 µM [falling, full curve, poor fit] under setting [2] and 3.98 µM [falling, full curve, poor fit] under setting [1].

As for `O=S(=O)(O)c1ccc2c(N=Nc3ccc(S(=O)(=O)O)c4ccccc34)c(O)c(S(=O)(=O)O)cc2c1`, under setting [2], the AC50 is 0.0355 µM [rising, full curve, poor fit].

For the molecule `COC(=O)c1cc(NC(=O)CCc2c(C)nc3ncnn3c2C)cc(C(=O)OC)c1`, the AC50 reads like this: under setting [2], 0.0708 µM [falling, partial curve, poor fit]; under setting [1], 0.0501 µM [falling, partial curve, poor fit].

On to `O=C1CCCc2cc(S(=O)(=O)N3CCCC(C(=O)Nc4ccc(F)c(Cl)c4)C3)ccc2N1` (stereo unspecified), for which the AC50 under setting [2] is 11.2 µM [falling, partial curve] and the AC50 under setting [1] was 35.5 µM [falling, partial curve].

Turning to `CC(C)c1nc2sc3c(=O)[nH]c(=S)[nH]c3c2c2c1CCC2`, the concentration at half-maximal activity (AC50) under setting [1] was 0.0891 µM [rising, full curve, poor fit].

For `CSC(=NS(=O)(=O)c1ccccc1)SC`, the concentration at half-maximal activity (AC50) under setting [2] was 35.5 µM [rising, single point] and the half-maximal activity concentration (AC50) under setting [1] was 25.1 µM [rising, single point].

In the case of `CCN(CC)S(=O)(=O)c1ccc(Cl)c(C(=O)Nc2nnc(C)s2)c1`, the AC50 runs as follows: under setting [2], 35.5 µM [rising, single point]; under setting [1], 31.6 µM [rising, single point].

In the case of `C=CCNCC(=O)N1N=C(c2ccc3ccccc3c2)CC1c1ccc(OC)cc1` (stereo unspecified), under setting [2], the half-maximal activity concentration (AC50) is 0.501 µM [falling, partial curve, poor fit].

Consider `Cc1cccc(NC(=O)N2CCN(C(=O)c3nsc4ccccc34)CC2)c1C`, for which, under setting [2], the half-maximal activity concentration (AC50) is 0.0251 µM [rising, full curve, poor fit].

With `Cc1cc(C)nc(SC(C)C(=O)O)n1` (stereo unspecified), under setting [1], the AC50 is 11.2 µM [rising, partial curve].

As for `CCC1(C)CC(c2nc(-c3ccc(OC)cc3)cs2)CCS1` (stereo unspecified), the half-maximal activity concentration (AC50) was 35.5 µM [rising, single point] under setting [2] and 35.5 µM [rising, single point] under setting [1].

Consider `CCOC(=O)N/N=C/c1ccc(OCCSc2ccc(Cl)cc2)c(OCC)c1`, for which the concentration at half-maximal activity (AC50) under setting [1] was 14.1 µM [rising, single point].

With `Cn1c(CC(=O)NC(C)(C)CO)c(Sc2ccccc2)c2ccccc21`, under setting [1], the AC50 is 12.6 µM [rising, single point].

In the case of `COc1ccc2oc(=O)c(-c3csc(Nc4cccc(O)c4)n3)cc2c1`, the half-maximal activity concentration (AC50) reads like this: under setting [2], 35.5 µM [rising, single point]; under setting [1], 25.1 µM [rising, partial curve].

As for `CC(C)CCN1CCN(Cc2cccc3cccnc23)CC1CCO` (stereo unspecified), under setting [1], the half-maximal activity concentration (AC50) was 0.02 µM [falling, full curve, poor fit].

With `CCc1cccc(NC(=O)CCCSc2nc3ccccc3[nH]2)c1`, the half-maximal activity concentration (AC50) is 17.8 µM [rising, partial curve, poor fit] under setting [2] and 15.8 µM [rising, partial curve] under setting [1].

Turning to `Cc1ncsc1CCC(=O)N1CCCC(C(=O)c2cccc(Cl)c2)C1` (stereo unspecified), the half-maximal activity concentration (AC50) under setting [1] was 12.6 µM [falling, partial curve].

Take `O=c1[nH]c(=O)c2nnc(N/N=C\c3ccc(O)cc3)nc2[nH]1`: the concentration at half-maximal activity (AC50) under setting [2] is 0.0631 µM [rising, full curve, poor fit].

Turning to `COC(=O)Nc1nc(-c2ccccc2)c(C(=O)c2ccc(Cl)cc2)s1`, the AC50 under setting [2] is 0.2 µM [falling, full curve, poor fit] and the AC50 under setting [1] was 3.55 µM [rising, single point].
